Results deposited as PubChem BioAssay AID1053208 (Peter MacCallum Cancer Centre, 2014)

Assay: 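Find knock-downs that sensitise mouse osteosarcoma cells to doxorubicin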 (primary screen)
Cells: mouse osteosarcoma cells, early-passage culture from an engineered mouse model of fibroblastic bone tumour
Reagent: siRNA pool against mouse genes, 40 nM
Time to read-out: about 120 h (48 h before drug, then 72 h with drug)
Conditions: doxorubicin 100 nM for 72 h, roughly 30-40% inhibitory dose
Detection: 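Viability read as ATP luminescence after 72 h of 100 nM doxorubicin or none, duplicate wells averaged, scaled to non-targeting siRNA, then expressed as robust z-scores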
Reading the numbers: viability z-score with doxorubicin: higher = more viable cells under doxorubicin; viability z-score without drug: higher = more viable cells with knock-down alone; z-score of drug to no-drug ratio: higher = less drug sensitisation by knock-down
Active means: 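a pool counts as active when its viability z-score with doxorubicin is -2 or below and its z-score without drug lies between -2 and 2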
This is a random part of about 17,000 reagents. Of all reagents, 788 (4.7%) were called active. 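Calls rest on z-score classes alone; an extra cut-off of viability at most 70% of control was not applied to them.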 A number with no mark means an inactive call. Further read-outs or replicates are left out here.

gene symbol	PubChem SID	combined z-score class	viability z-score with doxorubicin	viability z-score without drug	z-score of drug to no-drug ratio
Ss18l1 (SS18, nBAF chromatin remodeling complex subunit like 1)	SID152329241	no change with or without drug	-0.9	-0.17	-0.79
Gstk1 (glutathione S-transferase kappa 1)	SID152320037	no change with or without drug	0.9	0.51	0.67
Atp2b2 (ATPase, Ca++ transporting, plasma membrane 2)	SID152310835	no change with or without drug	0.34	-1.18	1.35
Sgk2 (serum/glucocorticoid regulated kinase 2)	SID152266656	no change with or without drug	-1.57	-0.51	-1.24
Spg7 (SPG7, paraplegin matrix AAA peptidase subunit)	SID152310234	low cell count with doxorubicin only (active)	-2.7	-0.17	-2.7
Spg7 (SPG7, paraplegin matrix AAA peptidase subunit)	SID152318565	no change with or without drug	1.01	1.18	0.34
Pln (phospholamban)	SID152287638	no change with or without drug	-1.35	-0.84	-0.79
Wwp1 (WW domain containing E3 ubiquitin protein ligase 1)	SID152298323	no change with or without drug	-0.67	-0.17	-0.45
Usp14 (ubiquitin specific peptidase 14)	SID152292645	no change with or without drug	-0.22	0.34	-0.34
Cyp2b9 (cytochrome P450, family 2, subfamily b, polypeptide 9)	SID152279074	no change with or without drug	1.12	0.84	0.67
Fabp9 (fatty acid binding protein 9, testis)	SID152274332	no change with or without drug	0.34	0.51	0.11
Cox6c (cytochrome c oxidase subunit 6C)	SID152291840	no change with or without drug	0.45	0.17	0.45
Chil3 (chitinase-like 3)	SID152301353	no change with or without drug	-0.56	-0.17	-0.34
Eaf2 (ELL associated factor 2)	SID152290189	no change with or without drug	1.01	-0.84	1.8
Tmem45a2 (transmembrane protein 45A2)	SID152283897	no change with or without drug	-0.45	1.52	-1.24
H4c16 (H4 histone 16)	SID152325680	no change with or without drug	1.24	0.51	1.01
Fam222b (family with sequence similarity 222, member B)	SID152307865	no change with or without drug	0.45	0.17	0.45
Pak1ip1 (PAK1 interacting protein 1)	SID152328447	no change with or without drug	-0.9	-1.18	0
Nsmce2 (NSE2/MMS21 homolog, SMC5-SMC6 complex SUMO ligase)	SID152320566	low cell count without drug only	-1.8	-2.19	-0.34
Ndufa2 (NADH:ubiquinone oxidoreductase subunit A2)	SID152327560	no change with or without drug	0.9	-1.18	2.02
R3hcc1l (R3H domain and coiled-coil containing 1 like)	SID152306561	no change with or without drug	0.67	0.67	0.34
Slamf7 (SLAM family member 7)	SID152288655	no change with or without drug	0.9	0.84	0.45
Sigmar1 (sigma non-opioid intracellular receptor 1)	SID152295102	no change with or without drug	0.45	1.85	-0.67
Nme7 (NME/NM23 family member 7)	SID152312618	no change with or without drug	0.11	1.18	-0.56
Rrm1 (ribonucleotide reductase M1)	SID152276345	low cell count with and without drug	-4.95	-2.87	-3.82
Rnpepl1 (arginyl aminopeptidase (aminopeptidase B)-like 1)	SID152318426	low cell count with doxorubicin only (active)	-3.6	-1.85	-2.7
Zfp27 (zinc finger protein 27)	SID152319884	no change with or without drug	-0.22	1.52	-1.12
Cers1 (ceramide synthase 1)	SID152313913	no change with or without drug	-0.11	0.51	-0.34
Ablim3 (actin binding LIM protein family, member 3)	SID152339421	no change with or without drug	0.67	1.85	-0.45
Eif4a2 (eukaryotic translation initiation factor 4A2)	SID152271907	no change with or without drug	-0.9	0	-0.79
Dnajb12 (DnaJ heat shock protein family (Hsp40) member B12)	SID152285538	no change with or without drug	-0.67	0.51	-0.9
Serpini1 (serine (or cysteine) peptidase inhibitor, clade I, member 1)	SID152333246	no change with or without drug	1.57	1.18	0.9
Pim2 (Pim2, proto-oncogene, serine/threonine kinase)	SID152306969	no change with or without drug	0.22	0.67	-0.11
Dgke (diacylglycerol kinase, epsilon)	SID152312380	no change with or without drug	0	-1.18	1.01

Entries above whose gene name begins with R or r (3):
gene symbol	PubChem SID	combined z-score class	viability z-score with doxorubicin	viability z-score without drug	z-score of drug to no-drug ratio
R3hcc1l (R3H domain and coiled-coil containing 1 like)	SID152306561	no change with or without drug	0.67	0.67	0.34
Rrm1 (ribonucleotide reductase M1)	SID152276345	low cell count with and without drug	-4.95	-2.87	-3.82
Rnpepl1 (arginyl aminopeptidase (aminopeptidase B)-like 1)	SID152318426	low cell count with doxorubicin only (active)	-3.6	-1.85	-2.7
